Experiment [1] addresses T1, CD300lf, cellular receptor of MNoV, expressed on HEK293T cells (UniProt Q6SJQ7).
T1 sequence: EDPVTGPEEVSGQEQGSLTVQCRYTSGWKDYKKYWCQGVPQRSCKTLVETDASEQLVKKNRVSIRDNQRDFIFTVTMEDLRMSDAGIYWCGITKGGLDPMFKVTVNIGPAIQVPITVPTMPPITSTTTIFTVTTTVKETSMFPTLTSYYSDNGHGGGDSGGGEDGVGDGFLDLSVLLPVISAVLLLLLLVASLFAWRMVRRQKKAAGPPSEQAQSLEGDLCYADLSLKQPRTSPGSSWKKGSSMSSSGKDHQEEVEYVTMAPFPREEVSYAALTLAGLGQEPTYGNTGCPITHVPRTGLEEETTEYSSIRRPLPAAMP
Put plainly: virus attachment to cells measured by qRT-PCR; purified infectious particles pretreated with PBS(-)+EDTA (pH 8); HEK293T/CD300lf cells, 10^5 cells/well, MOI ≦ 10, 30 min at 37°C, washed twice with DMEM, RNA of attached virus by qRT-PCR; only the binder purified. (Real-time PCR tracks product formation cycle by cycle.)

Amino acid sequences for entries named in this document (tags omitted).
UniProt Q80J94: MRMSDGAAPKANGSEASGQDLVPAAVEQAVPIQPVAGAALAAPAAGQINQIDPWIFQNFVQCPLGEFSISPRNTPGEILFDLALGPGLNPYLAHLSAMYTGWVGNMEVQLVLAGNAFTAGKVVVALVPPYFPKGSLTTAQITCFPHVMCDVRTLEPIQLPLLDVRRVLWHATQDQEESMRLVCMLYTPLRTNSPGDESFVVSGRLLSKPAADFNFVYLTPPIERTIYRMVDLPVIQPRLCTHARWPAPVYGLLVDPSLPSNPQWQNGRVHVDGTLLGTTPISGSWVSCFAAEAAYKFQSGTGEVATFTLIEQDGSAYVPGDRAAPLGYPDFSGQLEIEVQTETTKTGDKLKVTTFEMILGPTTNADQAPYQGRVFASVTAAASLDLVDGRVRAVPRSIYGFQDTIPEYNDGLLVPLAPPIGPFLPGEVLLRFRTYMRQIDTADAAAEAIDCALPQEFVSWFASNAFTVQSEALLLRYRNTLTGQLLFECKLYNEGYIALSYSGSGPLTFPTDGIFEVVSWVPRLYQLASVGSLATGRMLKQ

Experiment [2] concerns the target T1, CD300lf, cellular receptor of MNoV, expressed on HEK293T cells. Kind of experiment: virus attachment to cells measured by qRT-PCR; purified infectious particles pretreated with DMEM; HEK293T/CD300lf cells, 10^5 cells/well, MOI ≦ 10, 30 min at 37°C, washed twice with DMEM, RNA of attached virus by qRT-PCR; only the binder purified.

No constants are given. Whether binding was seen depends on the method and setting. Some binding calls cover weakened binding; strength is not graded here.

In the case of “VP1 capsid protein of murine norovirus type 1 (MNoV-1), as the capsid of infectious particles (from UniProt Q80J94 1-541)”, the binding entry in experiment [1] and in experiment [2] was “binds” in each case.

The record behind these values is PMC7331980, “Dynamic rotation of the protruding domain enhances the infectivity of norovirus” (PLoS Pathogens, 2020).
